According to patent US20190201552:
For part of these data: A negative result means that nothing was seen under these conditions. For part of these data: Results from cells or extracts need not show a direct contact. For part of these data: For at least one entry, the source does not settle the construct or the ends of the probe.

Sequences of proteins named here, by UniProt entry; tags and fusion partners are left off. Residues count along the entry.
UniProt P21860, 20-1342: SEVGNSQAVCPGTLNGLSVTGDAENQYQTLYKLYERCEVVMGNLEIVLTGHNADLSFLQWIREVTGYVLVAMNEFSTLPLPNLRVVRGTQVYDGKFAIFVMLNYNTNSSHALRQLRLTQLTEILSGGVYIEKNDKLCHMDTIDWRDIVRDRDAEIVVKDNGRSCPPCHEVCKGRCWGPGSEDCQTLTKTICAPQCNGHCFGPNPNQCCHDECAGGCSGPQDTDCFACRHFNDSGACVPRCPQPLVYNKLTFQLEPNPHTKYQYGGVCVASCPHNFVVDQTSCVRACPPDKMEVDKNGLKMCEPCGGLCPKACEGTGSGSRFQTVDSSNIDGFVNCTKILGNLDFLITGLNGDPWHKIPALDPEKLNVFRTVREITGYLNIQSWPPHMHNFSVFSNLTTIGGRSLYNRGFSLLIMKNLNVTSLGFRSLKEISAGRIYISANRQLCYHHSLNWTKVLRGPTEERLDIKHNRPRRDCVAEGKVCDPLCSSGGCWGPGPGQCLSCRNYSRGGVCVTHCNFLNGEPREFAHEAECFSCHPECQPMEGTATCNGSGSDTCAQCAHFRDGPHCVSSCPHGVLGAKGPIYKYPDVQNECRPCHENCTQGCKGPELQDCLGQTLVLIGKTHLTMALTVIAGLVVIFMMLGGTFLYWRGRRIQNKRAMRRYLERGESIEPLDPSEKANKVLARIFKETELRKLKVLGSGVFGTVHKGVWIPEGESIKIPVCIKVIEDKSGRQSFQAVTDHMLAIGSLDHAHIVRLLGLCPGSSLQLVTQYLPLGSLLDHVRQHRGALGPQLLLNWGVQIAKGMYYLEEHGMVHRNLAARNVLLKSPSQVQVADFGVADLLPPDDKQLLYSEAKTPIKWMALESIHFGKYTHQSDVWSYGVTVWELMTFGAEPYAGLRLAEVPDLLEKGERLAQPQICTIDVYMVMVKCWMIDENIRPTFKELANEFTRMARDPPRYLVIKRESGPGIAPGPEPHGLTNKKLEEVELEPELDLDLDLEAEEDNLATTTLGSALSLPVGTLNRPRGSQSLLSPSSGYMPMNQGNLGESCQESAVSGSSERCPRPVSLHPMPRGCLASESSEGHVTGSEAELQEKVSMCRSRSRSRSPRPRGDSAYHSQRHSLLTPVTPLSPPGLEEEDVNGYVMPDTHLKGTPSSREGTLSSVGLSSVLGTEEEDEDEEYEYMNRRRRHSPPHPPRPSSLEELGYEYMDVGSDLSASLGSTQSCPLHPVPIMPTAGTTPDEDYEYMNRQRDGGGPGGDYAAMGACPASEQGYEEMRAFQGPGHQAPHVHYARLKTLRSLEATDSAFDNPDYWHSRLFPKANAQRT

Experiments:
[1] = target: HER2 (ERBB2) (Homo sapiens) (UniProt P04626); assay: binding assay; conditions: 2'-F pyrimidines; CITED Kd of HER2 aptamer, method not stated (Kim et al. 2011); protein on the cell surface; protein details: endogenous on BT474 / SKBR3 …; label: Cy5 (binding/uptake assays)
[2] = target: HER2 (ERBB2) (Homo sapiens) (UniProt P04626); assay: activity in cells; conditions: 2'-F pyrimidines, HER2 protein reduced, protein on the cell surface, protein details: endogenous on BT474 / SKBR3 cells
[3] = target: HER2 (ERBB2) (Homo sapiens) (UniProt P04626); assay: flow cytometry; conditions: 2'-F pyrimidines, protein on the cell surface, protein details: endogenous on BT474 / SKBR3 cells, label: Cy5
[4] = target: HER3 (ERBB3) (Homo sapiens) (UniProt P21860); assay: activity in cells; conditions: 2'-F pyrimidines, protein on the cell surface, protein details: endogenous on BT474 / SKBR3 cells
[5] = target: HER3 (ERBB3) (Homo sapiens) (UniProt P21860); assay: binding assay; conditions: 2'-F pyrimidines; CITED Kd of HER3 aptamer, method not stated (Chen et al. 2003); protein on the cell surface; protein details: endogenous on BT474 / SKBR3 cells
[6] = target: HER3 (ERBB3) (Homo sapiens) (UniProt P21860); assay: flow cytometry; conditions: 2'-F pyrimidines; binding to BT474 reduced on HER3 knockdown; affinity comparable with single aptamers; protein on the cell surface; protein details: endogenous on BT474 / SKBR3 cells; label: Cy5

Sequence: AGCCGCGAGGGGAGGGAUAGGGUAGGGCGCGGCU [HER2 aptamer (34 nt)]
- Kd [1]: 3.49 nM
- functional effect of the aptamer ([2]; 2 uM, 72 h: viability reduced 40% in SKBR3 and 35% in BT474): active

Sequence: AGCCGCGAGGGGAGGGAUAGGGUAGGGCGCGGCUAAAACCUUAGCAGUCUUAUCUAAUU / AGCCGCGAGGGGAGGGATAGGGTAGGGCGCGGCTAAAATTAGATAAGACTGCTAAGGCA [HEH (HER2 aptamer-EGFR siRNA-HER2 aptamer chimera)]
- binding result ([3]; transcribed RNA, SEQ:4 is the DNA template of the second strand, Cy5-HEH 2 uM, 37 C 1 h, yeast tRNA and sperm DNA, BT474 all positive, binding correlates with HER2 expression, variant of HER2 aptamer (34 nt)): binds
- functional effect of the aptamer ([2]; transcribed RNA, SEQ:4 is the DNA template of the second strand, 1 uM, 72 h: viability reduced 90% in SKBR3 and 85% in BT474, not in HER2-low cells, variant of HER2 aptamer (34 nt)): active

Sequence: AGCCAAACGAGGGGGGAGAGGGTGGGGGCGCCTGAAAACCTTAGCAGTCTTATCTAATT / GAATTCCGCGTGTGCCAGCGAAAGTTGCGTATGGGTCACATCGCACAGGACGTTCATCTGGGCGGTCCGTTCGGGATCCAAAAUUAGAUAAGACUGCUAAGGCA [muH2EH3 (mutant HER2 and HER3 aptamer chimera)]
- functional effect of the aptamer ([4]; transcribed RNA, printed as DNA templates, no cytotoxicity and no reduction of HER3 in BT474/SKBR3, dose not given here): not active

Sequence: GAAUUCCGCGUGUGCCAGCGAAAGUUGCGUAUGGGUCACAUCGCAGGCACAUGUCAUCUGGGCGGUCCGUUCGGGAUCC [HER3 aptamer (79 nt)]
- Kd [5]: 45 nM
- functional effect of the aptamer ([4]; 2 uM, 72 h: viability 48% BT474, 65% SKBR3): active

Sequence: AGCCGCGAGGGGAGGGAUAGGGUAGGGCGCGGCUAAAACCUUAGCAGUCUUAUCUAAUU / GAAUUCCGCGUGUGCCAGCGAAAGUUGCGUAUGGGUCACAUCGCAGGCACAUGUCAUCUGGGCGGUCCGUUCGGGAUCCAAAAUUAGAUAAGACUGCUAAGGCA [H2EH3 (HER2 aptamer-EGFR siRNA-HER3 aptamer chimera)]
- binding result ([3]; binding to BT474 reduced on HER2 knockdown, affinity comparable with single aptamers): binds
- binding result [6]: binds
